# Test results from publication PMC12040169 (PLOS Biology, 2025).
# Some of the results follow.
# Test system: T1, CTL2-GFP (C. trachomatis L2/434/Bu, GFP-expressing)
# T1 construct: L2/434/Bu, GFP-expressing
# Set-up: species or system HeLa; Intracellular C. trachomatis growth in HeLa cells, bulk GFP fluorescence relative to DMSO
# Conditions: bulk GFP, single well; 28.5 h, 10 µM; inhibitor
row,SMILES,% of control remaining [%]
1,CNS(=O)(=O)N1CCN(S(=O)(=O)NC)CC1 [CBK007064],112.418
2,CCOC1C(OCC)N(S(=O)(=O)c2ccc(C)cc2)CCN1S(=O)(=O)c1ccc(C)cc1 (stereo not shown) [CBK261832],85.5163
3,CS(=O)(=O)CCNC(=O)c1cnc(-c2cccc(C(F)(F)F)c2)c(-c2ccncc2)c1 [CBK036661],101.509
4,CC(=O)Nc1cnn(-c2ccc(C(=O)N3CCCCC3c3nc4ccccc4[nH]3)cc2)c1 (stereo not shown) [CBK291109],138.498
5,COc1cccc(NC(=S)NCCc2ccccn2)c1 [CBK265245],84.4883
6,Cc1ccccc1OCCSc1nc2ccccc2n1CCO [CBK262523],112.057
7,Cc1ccc(-c2csc(NC(=O)c3c(C)noc3C)c2C(=O)NC2CC2)cc1 [CBK268141],114.319
8,CCNC(=O)N(C)c1c(CC)nc2c(OCC3CCCCC3)cccn12 [CBK147795],106.826
9,CC(C)C(=O)N1CCN(C(=O)Cn2c(-c3ccc(Cl)cc3)n[nH]c2=S)CC1 [CBK297910],135.346
10,O=C(NCCCn1cccc1)N1CCN(Cc2ccc(F)cc2)CC1 [CBK306994],87.7076
11,COc1ccccc1-c1ccc(NC(=O)c2ccc3c(c2)ncn3C)cc1 [CBK285652],109.823
12,CCOC(=O)Cn1c(-c2cccs2)cc2cccnc21 [CBK282267],98.8963
13,Cc1ccccc1Nc1nc(N)nc(CN2CCOCC2)n1 [CBK305646],116.558
14,CO[C@H]1CC[C@H](C(=O)N2C3CCC2CC(O)(c2ccco2)C3)CC1 (stereo partly shown) [CBK284107],133.963
15,Cc1ncsc1C(=O)N1CCC2(C/C=C/C[C@H]3COCC[C@H]3NC(=O)[C@@H](CC(C)C)NC2=O)CC1 [CBK292187],120.611
16,Cc1nc2ccc(C(=O)NC3CCN(Cc4ccccc4)CC3)cn2c1N(C)C(=O)c1cccs1 [CBK146529],136.4
17,O=C(NC(Cc1c[nH]c2ccccc12)C(=O)O)c1ccco1 (stereo not shown) [CBK217706],115.441
18,COc1cc2c(cc1OC)C(c1ccccc1)N(Cc1ccc(OCCO)cc1)CC2 (stereo not shown) [CBK286359],109.13
19,CC(=O)Nc1ccc(S(=O)(=O)Nc2ccc(C(=O)O)cc2)cc1 [CBK050427],100
20,O=C(NCc1ccc2occc2c1)c1ccc2[nH]ccc2c1 [CBK149055],117.985
21,Cc1[nH]c2c(C)cccc2c1CC(=O)NC1CCCN(C)C1 (stereo not shown) [CBK282485],127.274
22,CCN(CC)CCC(=O)c1ccc(Cl)cc1 [CBK015906C],149.097
23,CC(C)N1CCC(=NNC(=O)c2cc(O)c(O)c(O)c2)CC1 [CBK262626],110.022
24,Cc1c(C(=O)N2CCCC2C(N)=O)nnn1Cc1ccc(F)cc1F (stereo not shown) [CBK305925],106.713
25,Cc1ccccc1Nc1nc(N)nc(CN2CCCC2C(=O)N(C)C)n1 (stereo not shown) [CBK305638],115.674
26,Cc1cnn(C(C)C(=O)N2CCc3c(nc(N(C)C)nc3N(C)C)C2)c1 (stereo not shown) [CBK307556],103.108
27,CCOc1ccccc1NC(=O)c1cc2cccnc2n(Cc2ccc(Cl)cc2)c1=O [CBK294395],113.943

# Part of the list above in order of number of heavy atoms, ascending:
row,SMILES,% of control remaining [%]
19,CC(=O)Nc1ccc(S(=O)(=O)Nc2ccc(C(=O)O)cc2)cc1 [CBK050427],100
25,Cc1ccccc1Nc1nc(N)nc(CN2CCCC2C(=O)N(C)C)n1 (stereo not shown) [CBK305638],115.674
3,CS(=O)(=O)CCNC(=O)c1cnc(-c2cccc(C(F)(F)F)c2)c(-c2ccncc2)c1 [CBK036661],101.509

# More structures

row,SMILES,% of control remaining [%]
1,CCn1c(C(O)c2ccccc2)n[nH]c1=S (stereo not shown) [CBK015110],172.1
2,Cc1[nH]c2ccccc2c1C(=O)CCC(=O)O [CBK260871],114.595
3,O=C(Cc1ccc(F)cc1)N1CCCC1c1cccc(Cc2ccc(F)cc2)n1 (stereo not shown) [CBK286234],118.214
4,CC(O)(CC#N)c1ccccc1 (stereo not shown) [CBK028508],98.6159
5,CC(=O)C(CC(=O)O)C1=C(O)CC(C)(C)CC1=O (stereo not shown) [CBK287127],119.775
6,Cc1ccc(S(=O)(=O)Nc2ccc(C(=O)Nc3ccc(S(=O)(=O)N4CCCCC4)cc3)cc2)cc1 [CBK269000],107.863
7,CCOc1ccc(NC(NC(=O)Nc2ccccc2)C(Cl)(Cl)Cl)cc1 (stereo not shown) [CBK261294],106.332
8,COc1ccc(Cl)cc1N1CCN(CCO)CC1 [CBK138339],105.765
9,COc1ccc(Oc2cncc(OC3CCN(CC4CC4)C3)n2)cc1OC (stereo not shown) [CBK084412],79.5721
10,COc1ccc(C(=O)OC(C)(C)C)c(-c2nccnc2N[C@@H](C)c2ccccc2)c1 [CBK036994],93.8687
11,Nc1ncc(-c2cccc([N+](=O)[O-])c2)nc1-c1ccc(O)cc1 [CBK122507],129.641
12,Cc1cc(=O)n2c3c(cc(S(=O)(=O)NC4CC4)cc13)CC2 [CBK218959],100.1
13,Cc1nn(C)c(Oc2cccc(C(F)(F)F)c2)c1C(=O)O [CBK000324],109.888
14,COc1ccc(C2CC(=O)C=C(Nc3cc(Cl)ccc3O)C2)cc1 (stereo not shown) [CBK263542],20.088
15,O=C(O)c1ccc(NS(=O)(=O)c2cccc([N+](=O)[O-])c2)cc1O [CBK200022],138.076
16,O=[N+]([O-])c1ccc(CN2CCN(C3CCN(Cc4ccccc4)CC3)CC2)cc1 [CBK264310G],100
17,Cc1ccccc1Nc1ccccc1C(=O)O [CBK012249],103.802
18,COc1cccc(CN2CCC3(CC2)NC(=O)Cc2ccc(C)cc23)c1 [CBK040219],118.154
19,COc1cc2c(cc1NC(=O)c1ccc(C)c([N+](=O)[O-])c1)oc1ccccc12 [CBK263411],127.728
20,COC(=O)c1c(-c2ccncc2)csc1NC(=O)Cc1ccc([N+](=O)[O-])cc1 [CBK268119],107.739
21,O=C(CN1CCC(c2ccccc2F)CC1)NCc1ccco1 [CBK283550],117.315
22,COC(=O)c1ccsc1NC(=O)CN1CCNCC1 [CBK057080],157.847
23,CCOC(=O)C1(Cc2cc(-c3ccccc3F)no2)CCNCC1 [CBK284580],69.3862
24,CCNC(=O)N1CC(C)N(CCCCc2ccc(F)cc2)C(C)C1 (stereo not shown) [CBK025027C],129.622
25,c1ccc(OCCN2CCC3(C2)NCCc2[nH]ccc23)cc1 (stereo not shown) [CBK084595T],114.248
26,Cc1ccc2cc(CN(Cc3ccco3)S(C)(=O)=O)c(O)nc2c1 [CBK269409],166.915
27,CCOc1cc2c(cc1NS(=O)(=O)c1cc(C(=O)O)ccc1C)OC(C)C2 (stereo not shown) [CBK296711],132.45

row,SMILES,% of control remaining [%]
1,CN1CCCC(NC(=O)Cn2nc(C(F)(F)F)c3c2CCCC3)C1 (stereo not shown) [CBK282548],119.503
2,COc1ccc(C2=C(Nc3ccc(C(=O)NCc4cccnc4)cc3)c3ccccc3C2=O)cc1 [CBK263809],148.372
3,COc1ccc(-c2cc(C3CCN(C4CCSCC4)C3)[nH]n2)cc1 (stereo not shown) [CBK285282],125.118
4,O=C(CCCOc1ccc(Cl)cc1Cl)Nc1c[nH]c(=O)[nH]c1=O [CBK264235],104.941
5,CCc1c(C)nc2c(C(=O)NC(CC)COC)cnn2c1C (stereo not shown) [CBK162133],126.565
6,CC1CC1C(=O)NC1CCN(CC2(c3ccccc3)CC2)CC1 (stereo not shown) [CBK285353],130.557
7,N#Cc1c(SCC(=O)O)nc(-c2cccs2)c2c1CCCC2 [CBK269858],116.77
8,CC(C)OC(=O)Cc1nc(CN2CCOC(c3ccc(F)cc3)C2)cs1 (stereo not shown) [CBK305439],95.5752
9,OCCC1CCCCN1c1cncc(-c2cccc(Cl)c2)n1 (stereo not shown) [CBK037906],84.9177
10,N#Cc1c[nH]c(C(=O)NC2CCN(C(=O)c3ccccc3)CC2)c1 [CBK306433],140.347
11,CS(=O)(=O)Nc1nccnc1OC1CCN(CCc2c[nH]c3ccccc23)CC1 [CBK084282],83.2679
12,CCC(CO)Nc1cncc(-c2ccc3c(c2)OCO3)n1 (stereo not shown) [CBK065970],99.6838
13,COCCn1cc(CN2CCC(CO)C2)c2ccccc21 (stereo not shown) [CBK282123],140.104
14,Cc1n[nH]c(C)c1CC(=O)N1CCCC(c2cc3ccccc3cn2)C1 (stereo not shown) [CBK285018],90.1318
15,Cc1nc(C(C)NC(=O)c2cc(C3CC3)nc3c2c(C)nn3C)cs1 (stereo not shown) [CBK304779],103.219
16,COc1ncc(-c2cncc(NCCc3ccccn3)n2)c(OC)n1 [CBK065287],231.545
17,Cc1c(Nc2cnn(C34CC5CC(CC(CC(=O)O)(C5)C3)C4)c(=O)c2Cl)c(=O)n(-c2ccccc2)n1C [CBK268707],133.393
18,CC(Oc1cccc(Cl)c1)C(=O)O/N=C(\N)Cc1cccc2ccccc12 (stereo not shown) [CBK266033],177.368
19,C=CCN(c1ccccc1)S(=O)(=O)c1ccc(Br)cc1CC [CBK038344],89.815
20,Cc1nc2c(c(=O)[nH]1)CC[C@@H]1CN(C(=O)c3occ4ccccc34)C[C@H]21 [CBK284408],76.8946
21,CN(C)CCN1CCN(c2cccc(-c3ccncc3)n2)CC1 [CBK037029],164.833
22,CS(=O)(=O)c1ccc(CNC(=O)c2ccccc2-n2cccc2)cc1 [CBK149612],111.72
23,O=C(Nc1ccc(Oc2ncccn2)cc1)c1csc(-c2ccccc2)n1 [CBK298324],122.003
24,CS(=O)(=O)Nc1ccc(-c2cccc(C(F)(F)F)c2)c2ccccc12 [CBK083746],108.724
25,O=C(c1ccc(F)cc1)C1CCN(CCc2c[nH]c3ccccc23)CC1 [CBK149125],100
